This note sets out measurements from PMC6925144, “A prospective compound screening contest identified broader inhibitors for Sirtuin 1” (Scientific Reports, 2019).

Protein sequences, listed by entry. Tags and fused reporters are not part of them. Residues count along the entry.
UniProt Q96EB6, 2-747 limits assumed: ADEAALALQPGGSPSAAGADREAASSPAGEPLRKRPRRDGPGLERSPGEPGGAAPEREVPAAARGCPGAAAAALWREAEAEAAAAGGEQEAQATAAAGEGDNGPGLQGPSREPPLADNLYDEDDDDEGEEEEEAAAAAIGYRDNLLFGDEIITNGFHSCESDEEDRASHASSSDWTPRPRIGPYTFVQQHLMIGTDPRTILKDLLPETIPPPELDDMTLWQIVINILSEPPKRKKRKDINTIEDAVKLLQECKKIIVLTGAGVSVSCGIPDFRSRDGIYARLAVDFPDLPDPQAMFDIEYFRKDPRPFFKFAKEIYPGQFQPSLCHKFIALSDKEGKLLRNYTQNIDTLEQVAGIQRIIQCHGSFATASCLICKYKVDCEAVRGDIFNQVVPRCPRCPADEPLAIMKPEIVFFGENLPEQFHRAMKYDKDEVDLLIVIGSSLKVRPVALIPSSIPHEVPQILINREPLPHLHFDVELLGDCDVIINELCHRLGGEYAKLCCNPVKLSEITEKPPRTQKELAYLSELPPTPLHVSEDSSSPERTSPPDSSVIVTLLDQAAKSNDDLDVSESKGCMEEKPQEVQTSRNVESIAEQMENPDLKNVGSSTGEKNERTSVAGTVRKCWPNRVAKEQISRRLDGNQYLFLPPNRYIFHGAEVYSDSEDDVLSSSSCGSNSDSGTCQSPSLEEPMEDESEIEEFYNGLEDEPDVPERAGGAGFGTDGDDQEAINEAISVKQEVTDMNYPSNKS

In all, about 3,200 compounds were measured (“TSA(with NAD+) / Primary screening (TSA) / delta Tm (K)”: median about -0.04, highest 2% from about 0.37 on). The list shows a part of the results.

The assay has as its target NAD-dependent deacetylase Sirtuin 1 (human, UniProt Q96EB6). Put plainly: primary screen, delta tm. Details: single well (n = 1, as 'the same TSA'). As to conditions: 10 µM.
Turning to `COC(=O)c1[nH]c(C)c(C(=O)/C=C(/O)C(=O)NCCN2CCOCC2)c1C`, the “TSA(with NAD+) / Primary screening (TSA) / delta Tm (K)” value is reported as -0.01 K.
As for `CC(NC(=O)COC(=O)c1cccnc1SCC(=O)Nc1ccc2c(c1)OCO2)C12CC3CC(CC(C3)C1)C2` (centres unmarked), the “TSA(with NAD+) / Primary screening (TSA) / delta Tm (K)” value is 0.06 K.
Take `CCN(CC)c1ccc(C(=O)C(C#N)C(=O)N2CCCC2)cn1` (centres unmarked): the “TSA(with NAD+) / Primary screening (TSA) / delta Tm (K)” value is -0.11 K.
As to `CCOC(=O)c1sc2ncnc(N3CCCC(C(N)=O)C3)c2c1C` (centres unmarked), the “TSA(with NAD+) / Primary screening (TSA) / delta Tm (K)” value is recorded as -0.21 K.
Consider `COC(=O)C1(CNc2ncnc3c(C)csc23)CC1`, for which the “TSA(with NAD+) / Primary screening (TSA) / delta Tm (K)” value stood at 0.06 K.
With `COC(=O)CN`, the “TSA(with NAD+) / Primary screening (TSA) / delta Tm (K)” value is 0.07 K.
As for `NC(=O)C1CCN(c2ncnc3ccccc23)CC1`, the “TSA(with NAD+) / Primary screening (TSA) / delta Tm (K)” value is -0.28 K.
Under `Cc1ccc(-c2csc3ncn(CCC(=O)Nc4cccc(-c5nc(C)no5)c4)c(=O)c23)cc1` stands 0.16 K; under `CCc1cccc2c(C(=O)COC(=O)CN3CCCCCC3=O)c[nH]c12`, -0.05 K.
For `Cc1ccc(-c2nnc(SCC(=O)NC(=O)NC(C)C)n2N)cc1`, the “TSA(with NAD+) / Primary screening (TSA) / delta Tm (K)” value is on record as -0.04 K.
On to `Cc1ccc2[nH]c3c(c2c1)CN(c1ncccn1)CC3`, for which the “TSA(with NAD+) / Primary screening (TSA) / delta Tm (K)” value was -0.18 K.
In the case of `CC(O)CC(C)(C)CNC(=O)Nc1ccc(F)cc1` (centres unmarked), the “TSA(with NAD+) / Primary screening (TSA) / delta Tm (K)” value is recorded as -0.09 K.
As for `Cc1[nH]c2ccc(C(=O)N3CCC(C(N)=O)CC3)cc2c1C`, the “TSA(with NAD+) / Primary screening (TSA) / delta Tm (K)” value is reported as -0.01 K.
As for `COCCCCCN`, the figure is -0.11 K; as for `CC1(C)CN(CC(F)(F)F)CCN1CC(=O)NCc1ccccc1`, -0.01 K; as for `N#CCCC(C#N)CN1CCC(CCc2ccc(O)cc2)CC1` (centres unmarked), -0.14 K.
As to `CC(C)CC1CCCC(CC(C)C)N1` (centres unmarked), the “TSA(with NAD+) / Primary screening (TSA) / delta Tm (K)” value is listed as -0.11 K.
Turning to `NC(=O)c1cc(N2CCN(CC(=O)N3CCCCCC3)CC2)nc2ccccc12`, the “TSA(with NAD+) / Primary screening (TSA) / delta Tm (K)” value is -0.01 K.
As for `CC(=O)NC12CC3CC(C1)CC(C(=O)OC(C)C(=O)Nc1ccccc1-c1ccccc1)(C3)C2` (centres unmarked), the “TSA(with NAD+) / Primary screening (TSA) / delta Tm (K)” value is on record as 0.02 K.
As for `O=C(Nc1cccc2cccnc12)c1ccc2c(c1)C(=O)c1ccccc1-2`, the figure is 0.09 K; as for `COc1cccc(/C=C2/Oc3cc(O)ccc3C2=O)c1OC(F)F`, 0.11 K.
As for `Cc1ccc(-n2c3nc4ccccc4nc3c3c(=N)oc(C)nc32)cc1`, the “TSA(with NAD+) / Primary screening (TSA) / delta Tm (K)” value is reported as -0.23 K.
Regarding `COc1ccc(N(C)S(=O)(=O)c2cccc(C(=O)OCc3ccc(C)cc3)c2)cc1`, the “TSA(with NAD+) / Primary screening (TSA) / delta Tm (K)” value was determined as 0.08 K.
Under `COc1ccc(C(CNC(=O)CCc2nc3ccccc3[nH]2)N(C)C)cc1` (centres unmarked) stands -0.04 K; under `COc1ccc2nc(C)c(C(=O)NC34CC5CC(CC(C5)C3)C4)cc2c1`, -0.28 K; under `COC(=O)c1ncccc1N1CCN(C(=O)CN2CCOCC2)CC1`, -0.18 K.
Turning to `C[C@@H](O)CCN`, the “TSA(with NAD+) / Primary screening (TSA) / delta Tm (K)” value is -0.13 K.
Consider `CC(NC(=O)COC(=O)CNC(=O)c1ccc(-c2ccccc2)cc1)C12CC3CC(CC(C3)C1)C2` (centres unmarked), for which the “TSA(with NAD+) / Primary screening (TSA) / delta Tm (K)” value is 0.07 K.
Take `COc1ccc(C(=O)NCCc2ccc(-c3csc(C)n3)s2)cc1`: the “TSA(with NAD+) / Primary screening (TSA) / delta Tm (K)” value was -0.09 K.
With `NC(=O)c1ccc(=O)n(Cc2ccn(-c3ccccc3)n2)n1`, the “TSA(with NAD+) / Primary screening (TSA) / delta Tm (K)” value is given as -0.28 K.
Under `O=C(Cn1nc(-c2ccccc2)ccc1=O)Nc1cc(-c2cccs2)nn1-c1ccccc1` stands -0.08 K.
Take `COC(=O)c1cc(NC(=O)CN2CCC(C(N)=O)CC2)cc(C(=O)OC)c1`: the “TSA(with NAD+) / Primary screening (TSA) / delta Tm (K)” value was -0.03 K.
Regarding `COc1ccc(C2=CCN(C(=O)Cn3cc(C)c4ccccc43)C2)cc1`, the “TSA(with NAD+) / Primary screening (TSA) / delta Tm (K)” value was found to be 0.06 K.
With `Cc1ccc2c(CC(=O)Nc3cc(C(N)=O)ccc3N3CCCC3)coc2c1`, the “TSA(with NAD+) / Primary screening (TSA) / delta Tm (K)” value is recorded as -0.06 K.
Under `CC(C)Oc1ccc(C(=O)C2=C(O)C(=O)N(CCCN3CCOCC3)C2c2ccc(F)cc2)cc1` (centres unmarked) stands 0.01 K; under `Nc1ccccc1-c1nc(C2CC2)n[nH]1`, -0.06 K.
`Cc1cc(C)c2c(N)c(C(=O)NN=C3C4CC5CC(C4)CC3C5)sc2n1`: the “TSA(with NAD+) / Primary screening (TSA) / delta Tm (K)” value is recorded as -0.08 K.
As for `Cc1ccc2[nH]c(-c3cccs3)c(CCC(=O)N3CCC(C(=O)Nc4ccccc4)CC3)c2c1`, the figure is -0.04 K; as for `CON(C)C(=O)c1cc2c(C)nn(C)c2nc1C`, -0.11 K.
Take `Cc1csc2c(N3CC4CCCN4CC3C)ncnc12` (centres unmarked): the “TSA(with NAD+) / Primary screening (TSA) / delta Tm (K)” value was -0.19 K.
`O=C1C(=O)N(CCOc2ccc3ccccc3c2)c2ccccc21`: the “TSA(with NAD+) / Primary screening (TSA) / delta Tm (K)” value is -0.14 K.
As to `O=C(NCc1nc2ccccc2[nH]1)C(O)(c1ccccc1)c1ccccc1`, the “TSA(with NAD+) / Primary screening (TSA) / delta Tm (K)” value is on record as -0.09 K.
With `Cc1cc(-c2nc3cc(F)ccc3n2C)ccc1NC(=O)C1CCCN1C(=O)C(C)C` (centres unmarked), the “TSA(with NAD+) / Primary screening (TSA) / delta Tm (K)” value is recorded as -0.01 K.
For `COc1ccc(C)cc1-c1nnc(S)n1N`, the “TSA(with NAD+) / Primary screening (TSA) / delta Tm (K)” value is on record as -0.11 K.
Consider `CC1CCC1N` (centres unmarked), for which the “TSA(with NAD+) / Primary screening (TSA) / delta Tm (K)” value is -0.04 K.
Regarding `CCN(C(=O)CSc1nnc(-c2ccccc2Cl)n1C1CCCC1)C1CCS(=O)(=O)C1` (centres unmarked), the “TSA(with NAD+) / Primary screening (TSA) / delta Tm (K)” value is reported as -0.01 K.
For `COc1ccc(C(CN2CCN(C)CC2)NC(=O)OC(C)(C)C)cc1` (centres unmarked), the “TSA(with NAD+) / Primary screening (TSA) / delta Tm (K)” value is given as 0.03 K.
